This passage reports binding results from paper PMC5014548.

Amino acid sequences for entries named in this document (tags omitted). A change or cut given only in a name is not applied to a line headed by its entry.
UniProt P25491, whole entry, looked up, stated change not applied: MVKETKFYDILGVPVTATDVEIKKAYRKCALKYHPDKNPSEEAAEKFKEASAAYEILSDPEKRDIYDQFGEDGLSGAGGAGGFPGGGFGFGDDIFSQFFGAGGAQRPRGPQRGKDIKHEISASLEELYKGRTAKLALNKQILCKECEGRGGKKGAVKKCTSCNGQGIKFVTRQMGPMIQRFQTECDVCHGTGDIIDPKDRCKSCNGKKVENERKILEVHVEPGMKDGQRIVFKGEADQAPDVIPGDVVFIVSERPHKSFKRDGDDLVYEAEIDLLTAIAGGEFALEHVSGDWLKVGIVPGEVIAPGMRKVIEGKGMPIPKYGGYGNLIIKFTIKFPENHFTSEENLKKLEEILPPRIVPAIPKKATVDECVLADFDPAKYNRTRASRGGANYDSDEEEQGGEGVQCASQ

No constants are given. Whether binding was seen depends on the method and setting. In cells and extracts the contact can be indirect.

The assay has as its target Ydj1p (SASQ), non-prenylatable Ydj1p mutant (S. cerevisiae) (UniProt P25491). The assay can be described thus: co-IP.

For “PrD-GFP, Gln/Asn-rich prion domain of Rnq1p fused to GFP (from UniProt P25367) (domain or fragment)”, the binding entry is “no binding”.
